From PubChem BioAssay AID493014 (National Center for Advancing Translational Sciences (NCATS), 2011)
The campaign covered roughly 340,000 compounds. About 170 (0.05%) were called active. The shares of active, inactive and inconclusive entries below differ from those in the screen. Calls come from the whole dose curve; as a rule, active = well fitted inhibition curve with a large enough effect in the signal ratio, with a control signal flat (not every such curve was filed as active); inconclusive = small, poorly fitted or top-dose-only effect, or effect the other way, or a change in a side signal; inactive = flat fitted curve, though single readings scatter; the % refers to the signal ratio. A potency beside an inconclusive call is a rough fit, not a confirmed value.

Assay: qHTS Assay to Find Inhibitors of Chronic Active B-Cell Receptor Signaling;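 for activity change, negative = inhibition: plate controls were basal doxycycline-induced cells for no effect and cells given 10 µM MG132 for full effect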
Details: ABC-DLBCL IkBa-CBG/CBR reporter, luminescence ratio (green luciferase fused to IkBa over red control in TMD8 lymphoma cells), 4 h; activity change, negative = inhibition: at 46.1 µM (top of the series)
Method in brief: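 Concentration-response series (up to 46 uM) were applied to TMD8 dual-reporter cells for 4 h at 37C with doxycycline. Green/red ratio, after filter-overlap correction, defined %Activity; red signal alone was normalised to basal cells and zero luminescence.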
Potency is the fitted concentration of half-maximal effect.

SMILES | activity change, negative = inhibition | Potency
O=C(Nc1cccc2c1CCCC2)c1ccccc1Br | inconclusive: 4.83% | –
Fc1ccc(C2c3[nH]c4ccccc4c3CCN2CCCn2cccn2)cc1 (configuration not stated) | inconclusive: -5.34% | –
Cc1nc(SCc2ccc(Cl)c(Cl)c2)ncc1C(=O)O | – | inconclusive: 22.4 µM [falling, single point]
CCc1noc(C)c1C(=O)NNC(=O)COc1cc(C)ccc1C | inconclusive: 0.851% | –
CCC(C)NS(=O)(=O)c1ccc(OCC(=O)Nc2ccc(F)cc2F)cc1 (configuration not stated) | inconclusive: -3.52% | –
O=C(Nc1cccc(O)c1)C1CCCN1C(=O)OCc1ccccc1 (configuration not stated) | inactive: -6% | –
Cc1cc(C(=O)C(C)OC(=O)C2=NNC(=O)CC2)c(C)n1-c1ccc(OC(F)F)cc1 (configuration not stated) | inactive: 15.5% | –
CC(C)OCCCn1c(SCc2ccccc2C#N)nc2c(sc3ccccc32)c1=O | inactive: -27.6% | –
Cc1cccc(NC(=O)CS(=O)(=O)c2cn(C)c3ccccc23)c1C | inconclusive: -7.85% | –
CCOc1ccc(NC(=O)c2cc3n(n2)C(C(F)(F)F)CC(c2ccco2)N3)cc1 (configuration not stated) | inconclusive: 4.71% | –
CCOc1cc(/C=C/C(=O)c2ccc(O)cc2)ccc1OCC(=O)N(C)C | – | inconclusive: 20.6 µM [falling, partial curve]
COc1ccc(NC(=O)CSc2nnc(CCC(=O)O)c(=O)n2N)cc1 | inactive: 0.809% | –
O=C(O)C1CCCCC1C(=O)Nc1cccc(Cl)c1Cl (configuration not stated) | inconclusive: 12.5% | –
Cc1ccc(NC(=O)C(C)OC(=O)CCC2CCCCC2)cc1 (configuration not stated) | – | inconclusive: 32.6 µM [falling, single point]
CCN(C(=O)c1cc2ccccc2oc1=O)c1ccccc1 | – | inconclusive: 29.1 µM [falling, single point]
NC(=O)C1CCN(C(=O)c2ccc3nc(N4CCCCC4)sc3c2)CC1 | inconclusive: 5.86% | –
COc1cc2c(OC(C)=O)c3c(c(-c4ccc5c(c4)OCO5)c2cc1OC)C(=O)OC3 | inconclusive: 28% | –
CCOC(=O)N1CCN=C1SCc1ccc(C(F)(F)F)cc1 | inactive: -27.2% | –
COc1ccc(NC(=O)OCCN2CCN(Cc3ccccc3)CCC2=O)cc1 | inconclusive: 2.45% | –
C=CCn1c(N)c(C(=O)OCCC)c2nc3ccccc3nc21 | inconclusive: 8.47% | –
CC1CCN(C2CC(=O)N(c3ccc(Br)cc3Br)C2=O)CC1 (configuration not stated) | inconclusive: -1.14% | –

SMILES | activity change, negative = inhibition | Potency
c1ccc(-n2ncc3c(NC4CCCC4)ncnc32)cc1 | – | inconclusive: 11.2 µM [falling, partial curve]
COc1ccc2nc(NC(=O)c3cccc(N4C(=O)CCC4=O)c3)sc2c1 | – | inconclusive: 29.1 µM [falling, single point]
CCOC(=O)N1CCN(c2ncnc3scc(-c4ccccc4)c23)CC1 | inconclusive: -9.83% | –
CC1CCc2c(sc3ncnc(SC(C)C(=O)NCC4CCCO4)c23)C1 (configuration not stated) | inconclusive: 0.753% | –
Cn1c(=O)c2c(nc(NCC(O)CO)n2CCc2ccccc2)n(C)c1=O (configuration not stated) | inactive: 6.39% | –
CC(=O)Nc1ccc(C(=O)NN2C(=O)c3ccccc3C2=O)cc1 | – | inconclusive: 0.631 µM [falling, full curve, poor fit]
Cc1ccc(OCc2cc(C(=O)NCCn3cccn3)no2)cc1C | inconclusive: -13% | –
COCCOC(=O)C1=C(N)OC2=C(C(=O)CCC2)C1c1cccnc1 (configuration not stated) | – | inconclusive: 0.251 µM [falling, full curve, poor fit]
CCOc1ncccc1C(=O)N1CCN(S(=O)(=O)c2cccs2)CC1 | inactive: -0.493% | –
Cn1c(SCC(=O)N/N=C/c2cccs2)nc2ccccc21 | inconclusive: 10.9% | –
Cn1c(SCc2ccc(Cl)cc2)nnc1-c1ccc2nonc2c1 | inactive: -0.3% | –
NC(=O)c1ccccc1NS(=O)(=O)Cc1ccc(Cl)cc1 | inconclusive: 5.03% | –
Cn1cc(Cl)c(-c2n[nH]c(=S)n2C2CCCCC2)n1 | inactive: -26.7% | –
Cc1ccc(-c2ccnc3[nH]n(-c4ccccc4)c(=O)c23)cc1 | inconclusive: 7.76% | –
COc1ccc(COc2ccccc2C(=O)NCc2ccccc2)cc1F | – | inconclusive: 11.6 µM [falling, partial curve]
COC(=O)c1cc2n(n1)CCN(Cc1ccccc1F)C2=O | inconclusive: -0.233% | –
CCOC(=O)c1sc(NC(=O)CSc2nnnn2-c2ccc(C)cc2)c(C(=O)OCC)c1C | inconclusive: 4.34% | –
COc1c(C)cc(C(=O)C2CCCN(Cc3cccc4nccnc34)C2)cc1C (configuration not stated) | inconclusive: 5.53% | –
CCNC(=O)C(=O)Nc1ccc(OC)c(Cl)c1 | inconclusive: -1.89% | –
O=C(CCN1CCN(C(c2ccccc2)c2ccccc2)CC1)N/N=C/c1ccc(O)cc1O | – | inconclusive: 18.4 µM [falling, single point]
O=C(c1ccccc1F)N1CCN(c2ccc([N+](=O)[O-])c(NCc3cccnc3)c2)CC1 | – | inconclusive: 35.5 µM [falling, partial curve, poor fit]

For reference, 2 of the compounds above:
SMILES | activity change, negative = inhibition | Potency
CCOc1cc(/C=C/C(=O)c2ccc(O)cc2)ccc1OCC(=O)N(C)C | – | inconclusive: 20.6 µM [falling, partial curve]
COc1ccc(NC(=O)CSc2nnc(CCC(=O)O)c(=O)n2N)cc1 | inactive: 0.809% | –
